# This is one part of the list.
# System: T1, CTL2-GFP (C. trachomatis L2/434/Bu, GFP-expressing)
# T1 construct: L2/434/Bu, GFP-expressing
# Design: species or system HeLa; Intracellular C. trachomatis growth in HeLa cells, bulk GFP fluorescence relative to DMSO
# Conditions: bulk GFP, single well; 28.5 h, 10 µM; inhibitor
row,Compound,% of control remaining
1,COC(CNC(=O)N(C)Cc1nncn1C(C)C)c1cccs1 (centres unmarked) [CBK306556],111.087%
2,CC(C)(C)OC(=O)NCCNC(=O)c1cccnc1NCc1ccc2c(c1)OCO2 [CBK160117],109.481%
3,O=S(=O)(Nc1nnn[nH]1)c1ccc(-c2ccccn2)s1 [CBK062589],114.794%
4,CCn1c(C)nc2cc(C(=O)NC3CCCOC3)ccc21 (centres unmarked) [CBK282066],140.573%
5,O=C(O)C1C2C=CC(C2)C1C(=O)N1CCc2ccccc21 (centres unmarked) [CBK286537],126.144%
6,OCCN1CCN(c2cncc(-c3cccc(OC(F)(F)F)c3)n2)CC1 [CBK065941],115.974%
7,COc1ccc(Nc2cn(C)nc2C(=O)O)cc1 [CBK269814],81.656%
8,N#Cc1c(N)nc(SCC(=O)O)c(C#N)c1-c1ccc(O)cc1 [CBK261270],114.133%
9,O=C(O)CC1SC(N/N=C/c2ccco2)=NC1=O (centres unmarked) [CBK261371],119.482%
10,O=C(c1cnc2ccccc2c1)N1CCc2ccccc21 [CBK200284],178.231%
11,COc1ccc(NC(=O)CSc2nc(O)cc(-c3ccccc3)n2)cc1OC [CBK263657],128.354%
12,COc1ccc(/C=C/c2nc3ccccc3s2)cc1S(=O)(=O)N1CCOCC1 [CBK269373],150.615%
13,CC[C@@H](Cn1ncc2ccccc2c1=O)NC(=O)CC1c2ccccc2Oc2ccccc21 [CBK286174],143.439%
14,O=C(O)CCC1=C2c3ccccc3CCN2C(=O)CC1 [CBK286945],94.8712%
15,Cc1nnc(SCc2cc(=O)nc(Nc3nc(C)c4ccccc4n3)[nH]2)s1 [CBK266549],131.774%
16,CC1=CC(c2ccc(Cl)cc2)n2nc(NC(=O)CCC(=O)O)nc2N1 (centres unmarked) [CBK264331],100%
17,COc1ccc(C2CCN(CC(=O)NC(C)(C)C)CC2)cc1 [CBK283558],108.848%
18,O=C(c1n[nH]c2c1CCCC2)N1CCc2ncc(Cl)cc2C1 [CBK284975],116.466%
19,Nc1cc2cccnc2nc1-c1cc(F)cc(F)c1 [CBK067604],122.835%
20,Cc1ccc(S(=O)(=O)N2CC[C@@H]3C[C@H](NC(=O)C4CC4C)[C@@H]32)cc1 (some centres unmarked) [CBK284968],143.923%
21,Cc1ccc2nc(NCC(=O)O)nc(-c3ccccc3)c2c1 [CBK287002],122.475%
22,COc1ccc([C@@]23CC[C@@H](NC(=O)Nc4ccc(-c5csnn5)cc4)C[C@@H]2N(C)CC3)cc1OC [CBK051163T],103.894%
23,CC(=O)c1cc(C#N)c(SCC(=O)O)nc1C [CBK270189],114.252%
24,O=c1c2sc(-c3ccc(F)cc3)cc2ncn1CC1(O)CCCNC1 (centres unmarked) [CBK306525],139.701%
25,Cc1ccnc(NS(=O)(=O)c2ccc(NC(=O)CSc3ccc(Cl)cc3)cc2)n1 [CBK265854],152.53%
26,Cc1ccn(CCNC(=O)Cc2coc3cc(C)c(C)cc23)n1 [CBK282578],74.7277%
27,Cn1c(SCC(=O)n2c3c(c4ccccc42)CCCC3)nnc1-c1ccco1 [CBK267370],143.086%

row,Compound,% of control remaining
1,CC1(C)COC(=O)N1C1CCN(C(=O)c2cncc(Br)c2)CC1 [CBK038781],101.751%
2,COc1ccc(CSc2nnc(-c3ccco3)n2N)cc1 [CBK267548],113.239%
3,Cc1cnc2c(C(=O)N3CC(C(=O)N4CCN(c5ccccc5)CC4)C3)cnn2c1 [CBK285641],135.061%
4,CCc1ccc(OCC(O)Cn2nnc(-c3ccc(CN4CCC(C)CC4)cc3)n2)cc1 (centres unmarked) [CBK161437T],60.3044%
5,Nc1ncnc2sc3c(c12)CCC3 [CBK097952],69.2963%
6,Nc1nc(SCc2ccc(Cl)cc2)nc2sc3c(c12)CCN(Cc1ccccc1)C3 [CBK263724],94.7616%
7,CC(=O)Nc1cccc(-c2cnc(N(C)S(C)(=O)=O)c(C(=O)NCc3ccc4c(c3)CCO4)c2)c1 [CBK076609],111.45%
8,CC(C)CC(=O)NCCn1nc(-c2cccs2)oc1=O [CBK282342],94.5448%
9,N#Cc1ccc(NCc2ccccc2CN2CCCC2CO)cn1 (centres unmarked) [CBK304077],91.0552%
10,O=C(c1cnccn1)N1CCN(CCc2ccccc2)CC1 [CBK200224],114.22%
11,O=C(CSc1nc[nH]n1)Nc1nsc(-c2ccc(Cl)cc2)n1 [CBK267273],99.9073%
12,CCn1cc(C(=O)NC2(c3cccc(OC)c3)CCCC2)cn1 [CBK283750],133.65%
13,COc1ccccc1CC(C)NC(=O)c1ccnn1C(C)C (centres unmarked) [CBK282595],119.376%
14,CC(=O)NCCN1CC[C@H]2CN(C(=O)c3cc(C)on3)CC[C@H]2CC1=O [CBK288785],156.17%
15,Cn1c(Cc2ccc(Cl)cc2)nnc1SCc1nc2ccccc2c(=O)n1-c1cccc(C(F)(F)F)c1 [CBK268425],96.3545%
16,CC(=O)Nc1ccc(F)c(NC(=O)NCCC2CCCN2C)c1 (centres unmarked) [CBK304661],129.724%
17,FC(F)(F)Oc1cccc(OCCOc2nccnc2N2CCNCC2)c1 [CBK014323G],122.806%
18,NC(=O)c1cn[nH]c1C1CCCCN1Cc1cccc2c1CCOC2 (centres unmarked) [CBK304745],123.529%
19,S=C(NCCc1ccccc1)NCCN1CCOCC1 [CBK264929],100%
20,Cc1ccccc1NC(=O)c1ccccc1Cl [CBK116485],136.238%
21,CC(C)(CO)CNc1cncc(-c2cccc(C(F)(F)F)c2)n1 [CBK065248],108.575%
22,CNC(=O)c1cccc(NC(=O)c2ccc(C)nc2N2CCOCC2)c1 [CBK106223],118.609%
23,Cc1ccc(S(=O)(=O)NCCc2nc3ccccc3n2C)s1 [CBK281398],103.729%
24,CC(Sc1ccc(Cl)cc1)C(=O)Nc1ccc(S(=O)(=O)Nc2ccc(Cl)cc2)cc1 (centres unmarked) [CBK264805],62.1964%
25,CC(=O)N1CCC(C(=O)NC(=O)NC2CCCCC2)CC1 [CBK034847],92.0185%
26,Oc1nccc(Oc2ccnc(Cl)n2)n1 [CBK000010],108.844%
27,O=C(O)CCSc1nc2ccccc2[nH]1 [CBK262056],100%

# By substructure, the compounds so far with a halogen
row,Compound,% of control remaining
6,OCCN1CCN(c2cncc(-c3cccc(OC(F)(F)F)c3)n2)CC1 [CBK065941],115.974%
16,CC1=CC(c2ccc(Cl)cc2)n2nc(NC(=O)CCC(=O)O)nc2N1 (centres unmarked) [CBK264331],100%
18,O=C(c1n[nH]c2c1CCCC2)N1CCc2ncc(Cl)cc2C1 [CBK284975],116.466%
19,Nc1cc2cccnc2nc1-c1cc(F)cc(F)c1 [CBK067604],122.835%
24,O=c1c2sc(-c3ccc(F)cc3)cc2ncn1CC1(O)CCCNC1 (centres unmarked) [CBK306525],139.701%
25,Cc1ccnc(NS(=O)(=O)c2ccc(NC(=O)CSc3ccc(Cl)cc3)cc2)n1 [CBK265854],152.53%
1,CC1(C)COC(=O)N1C1CCN(C(=O)c2cncc(Br)c2)CC1 [CBK038781],101.751%
6,Nc1nc(SCc2ccc(Cl)cc2)nc2sc3c(c12)CCN(Cc1ccccc1)C3 [CBK263724],94.7616%
11,O=C(CSc1nc[nH]n1)Nc1nsc(-c2ccc(Cl)cc2)n1 [CBK267273],99.9073%
15,Cn1c(Cc2ccc(Cl)cc2)nnc1SCc1nc2ccccc2c(=O)n1-c1cccc(C(F)(F)F)c1 [CBK268425],96.3545%
16,CC(=O)Nc1ccc(F)c(NC(=O)NCCC2CCCN2C)c1 (centres unmarked) [CBK304661],129.724%
17,FC(F)(F)Oc1cccc(OCCOc2nccnc2N2CCNCC2)c1 [CBK014323G],122.806%
20,Cc1ccccc1NC(=O)c1ccccc1Cl [CBK116485],136.238%
21,CC(C)(CO)CNc1cncc(-c2cccc(C(F)(F)F)c2)n1 [CBK065248],108.575%
24,CC(Sc1ccc(Cl)cc1)C(=O)Nc1ccc(S(=O)(=O)Nc2ccc(Cl)cc2)cc1 (centres unmarked) [CBK264805],62.1964%
26,Oc1nccc(Oc2ccnc(Cl)n2)n1 [CBK000010],108.844%

# (listing goes on)

row,Compound,% of control remaining
1,COc1ccc2[nH]cc(CCNC(=O)COc3ccc(O)cc3)c2c1 [CBK116227],91.3046%
2,CCCc1n[nH]c(=S)n1CC(=O)NCc1ccc(N2CC(C)OC(C)C2)nc1 (centres unmarked) [CBK297741],140.925%
3,CC(=O)Nc1ccc(OCC(O)Cn2ncc3ccccc3c2=O)cc1 (centres unmarked) [CBK305567],130.03%
4,CCc1nc2ccccc2n1CC(=O)N(C)C(C)c1cccnc1 (centres unmarked) [CBK304017],90.095%
5,COc1ccc(-c2cnn(-c3ccccc3CN(C)C)n2)cc1 [CBK112762],117.596%
6,Cc1nn2c(-c3ccc(NC(=O)c4cccs4)cc3)nnc2c2ccccc12 [CBK267134],145.273%
7,O=C(/C=C/c1cccc([N+](=O)[O-])c1)NC(=S)Nc1ccc(-c2nc3ncccc3o2)cc1 [CBK264391],112.207%
8,CSCCC(NC=C1C(=O)CC(C)(C)CC1=O)C(=O)O (centres unmarked) [CBK261311],118.669%
9,Cc1cc(C)cc(NC(=O)c2ccccc2NS(=O)(=O)c2ccc(F)c(F)c2F)c1 [CBK113886],110.085%
10,CC(CNc1cc(=O)n2ccccc2n1)CN1CCCC1 (centres unmarked) [CBK305270],87.4551%
11,COc1cccc(CNc2nccnc2-c2ccsc2)c1OC [CBK037543],78.5375%
12,Cn1ncc2c1CCCC2NC(=O)NCc1ccc(C#N)cc1F (centres unmarked) [CBK305193],103.82%
13,CN(C)C(=O)C1CN(C(=O)C(C)(C)c2ccccc2F)C1 [CBK281970],108.268%
14,CN1CCN(CC2(CNC(=O)c3ccc(C(=O)O)cc3)CC2)CC1 [CBK307517],136.488%
15,CC(=O)N[C@@H](CC(C)C)C(=O)Nc1cc(C)nc2ccccc12 [CBK116265],114.776%
16,CCc1nn(CC(=O)NC2CC2)c(=O)c2cc3ccsc3n12 [CBK284128],91.4921%
17,O=C(O)COc1ccccc1/C=N/NC(=O)Cc1ccc(Br)c2ccccc12 [CBK263116],99.4711%
18,CCOc1ncccc1NC(=O)Cc1cccc(OC)c1 [CBK256406],149.581%
19,CN(Cc1ccsc1)C(=O)c1cccc(S(=O)(=O)NC(C)(C)C)c1 [CBK305425],107.276%
20,Cc1noc(C(C)C)c1C(=O)NC1CCCN(c2ccn(C)n2)C1=O (centres unmarked) [CBK306356],140.455%
21,Cc1cc(C)c2c(OCC(=O)NC(C)C)nn(C)c2n1 [CBK306393],128.872%
22,Cc1csc2ncc(C(=O)Nc3ccccc3F)c(=O)n12 [CBK287455],108.753%
23,COc1cccc(NC(=O)CSc2nnc(-c3ccccc3O)n2-c2ccccc2)c1 [CBK268343],86.2094%
24,CCC(C)NC(=O)C1(Cc2ccc(-c3cc(F)ccc3OC)cc2)CCOCC1 (centres unmarked) [CBK285539],124.932%
25,O=C(NCCN1CCOCC1)C1CCCN(c2nc3c(-c4ccccc4)csc3c(=O)[nH]2)C1 (centres unmarked) [CBK215509],133.553%
26,CC(C)N1CCC[C@H]1c1nc(-c2ccc(N3CCN(C)CC3)nc2)no1 [CBK288881],161.505%
